{"source": "the supplement of paper PMC7024190", "note": "Where a name gives a salt, the structure may show the parent alone. The list shows a part of the results. Repeats in this data set agree poorly, so a single value says little.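 The cells were human embryonic kidney cells carrying a Renilla luciferase gene, driven by the HSV-TK promoter, on a plasmid put in briefly by transfection. This is the first-round screen of about ten thousand compounds, looking for ones that raise reporter output.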"}
{"system": "HEK 293FT", "test": "log relative Renilla luciferase luminescence (reporter expression vs reference, reference not stated) (log (base not stated)); higher = higher recombinant reporter expression", "conditions": "10 µM; time after transfection 48 h"}
{"smiles": "CCN1C[C@]2(COC)[C@H](O)C[C@H](OC)[C@@]34[C@@H]5C[C@@]6(O)[C@H](OC(=O)c7ccccc7)[C@@H]5[C@@](OC(C)=O)([C@@H]([C@H](OC)[C@H]23)[C@@H]14)[C@@H](O)[C@@H]6OC", "note": "[aconitine]", "log": 0.191}
{"smiles": "CC(=O)CC1CCCCN1", "note": "(stereo unspecified) [pelletierine hydrochloride]", "log": 0.252}
{"smiles": "C[C@H]1CC[C@]2(NC1)O[C@H]1C[C@H]3[C@@H]4CC[C@H]5C[C@@H](O[C@@H]6O[C@H](CO)[C@H](O[C@@H]7O[C@H](CO)[C@@H](O)[C@H](O[C@@H]8OC[C@@H](O)[C@H](O)[C@H]8O)[C@H]7O[C@@H]7O[C@H](CO)[C@@H](O)[C@H](O)[C@H]7O)[C@H](O)[C@H]6O)CC[C@]5(C)[C@H]4CC[C@]3(C)[C@H]1[C@@H]2C", "note": "[tomatine]", "log": 0.0673}
{"smiles": "CC1(C)C(=O)C=C[C@@]2(C)C1=C(O)C(=O)[C@]1(C)[C@@H]2CC[C@@]2(C)[C@H](c3ccoc3)C[C@H]3O[C@]321", "note": "[cedrelone]", "log": -1.39}
{"smiles": "COc1cc2c(cc1O)C[C@H]1c3c(cc(O)c(OC)c3-2)CCN1C", "note": "[boldine]", "log": -0.25}
{"smiles": "CCC1(CC)C(=O)NC(=O)NC1=O", "note": "[barbital]", "log": 0.00695}
{"smiles": "O=C1CCO1", "note": "[propiolactone]", "log": 0.114}
{"smiles": "Cc1c(O)c(O)cc2c1CC=C1[C@@]2(C)CC[C@@]2(C)[C@@H]3C[C@](C)(C(=O)O)CC[C@]3(C)CC[C@]12C", "note": "[dihydrocelastrol]", "log": -0.884}
{"smiles": "C[C@@H]1CC[C@]2(NC1)O[C@H]1C[C@H]3[C@@H]4CC=C5C[C@@H](O)CC[C@]5(C)[C@H]4CC[C@]3(C)[C@H]1[C@@H]2C", "note": "[solasodine]", "log": 0.205}
{"smiles": "O=C1C(Cl)=C(Cl)C(=O)C(Cl)=C1Cl", "note": "[chloranil]", "log": -0.178}
{"smiles": "COc1ccc(OC)c(C(O)C(C)N)c1", "note": "(stereo unspecified) [methoxamine hydrochloride]", "log": -0.0548}
{"smiles": "CC([C@H](O)c1ccccc1)N(C)C", "note": "(stereo partly drawn) [n-methyl (-)ephedrine [1r,2s]]", "log": -0.0235}
{"smiles": "Cc1ncc(C[n+]2csc(CCO)c2C)c(=O)[nH]1", "note": "[oxythiamine chloride hydrochloride]", "log": 0.0161}
{"smiles": "CCC(=O)O[C@H]1CC[C@H]2[C@@H]3CCC4=CC(=O)CC[C@]4(C)[C@H]3CC[C@]12C", "note": "[testosterone propionate]", "log": 0.154}
{"smiles": "COc1cc([C@@H]2c3cc4c(cc3[C@@H](O)[C@H]3COC(=O)[C@H]23)OCO4)cc(OC)c1O", "note": "[4'-demethylepipodophyllotoxin]", "log": -0.0702}
{"smiles": "C[C@@]12C(=O)OC(=O)[C@]1(C)[C@H]1CC[C@@H]2O1", "note": "[cantharidin]", "log": -1.29}
{"smiles": "COC(C)(C)CCC[C@H](C)C/C=C/C(C)=C/C(=O)OC(C)C", "note": "[methoprene (s)]", "log": 0.0025}
{"smiles": "CCCC(C)(COC(N)=O)COC(=O)NC(C)C", "note": "(stereo unspecified) [carisoprodol]", "log": -0.0702}
{"smiles": "Cl[C@H]1[C@H](Cl)[C@@H](Cl)[C@@H](Cl)[C@H](Cl)[C@H]1Cl", "note": "[lindane]", "log": 0.141}
{"smiles": "Oc1ccc(Cl)cc1Cc1cc(Cl)ccc1O", "note": "[dichlorophen]", "log": -0.491}
{"smiles": "CC(O)CN1CCN(CC(=O)[O-])CCN(CC(=O)[O-])CCN(CC(=O)[O-])CC1.[Gd+3]", "note": "(stereo unspecified) [gadoteridol]", "log": 0.0289}
{"smiles": "CC(=O)O[C@@H]1C[C@H]2C(C)(C)C(=O)C=C[C@]2(C)[C@H]2CC[C@]3(C)C(=CC(=O)O[C@H]3c3ccoc3)[C@@]21C", "note": "[deoxygedunin]", "log": -0.124}
{"smiles": "N[C@@H]1C[C@H]1c1ccccc1.N[C@H]1C[C@@H]1c1ccccc1", "note": "[tranylcypromine sulfate]", "log": 0.26}
{"smiles": "C#CC(C)(O)CC", "note": "(stereo unspecified) [meparfylon]", "log": 0.0437}
{"smiles": "C[N+]1(C)CCCC(OC(=O)C(O)(c2ccccc2)c2ccccc2)C1", "note": "(stereo unspecified) [mepenzolate bromide]", "log": 0.0599}
{"smiles": "COc1cc(OC)c(OC)cc1C=O", "note": "[asarylaldehyde]", "log": 0.0813}
{"smiles": "CCOP(=S)(OCC)Oc1ccc2c(C)c(Cl)c(=O)oc2c1", "note": "[coumophos]", "log": -0.168}
{"smiles": "COC(=O)NC(=S)Nc1ccccc1NC(=S)NC(=O)OC", "note": "[dimethyl 4,4-o-phenylene-bis (3-thiophanate)]", "log": 0.0221}
{"smiles": "CCOc1cc(C=O)ccc1O", "note": "[ethyl vanillin]", "log": -0.0784}
{"smiles": "COc1ccccc1N1CCNCC1", "note": "[1-(2-methoxyphenyl)pierazine hydrochloride]", "log": 0.00248}
{"smiles": "C=C1C[C@@H]2[C@H](CC[C@]3(C)C(=O)CC[C@@H]23)[C@@]2(C)C=CC(=O)C=C12", "note": "[exemestane]", "log": 0.0977}
{"smiles": "CC1CC(Cl)CCC1C(=O)OC(C)(C)C", "note": "(stereo unspecified) [trimedlure]", "log": -0.305}
{"smiles": "CCOP(=S)(OCC)Oc1nc(Cl)c(Cl)cc1Cl", "note": "[chlorpyrifos]", "log": -0.0341}
{"smiles": "CCCCCCCCCCCCCCCC[n+]1ccccc1", "note": "[cetylpyridinium chloride]", "log": -1.05}
{"smiles": "C=CCC1(C(C)CCC)C(=O)NC(=S)NC1=O", "note": "(stereo unspecified) [thiamylal sodium]", "log": 0.131}
{"smiles": "CC(=O)O[C@@H]1CC[C@@]2(C)[C@@H](CC[C@@H]3[C@@H]2CC[C@]2(C)C(=O)CC[C@@H]32)C1", "note": "[androsterone acetate]", "log": 0.0856}
{"smiles": "c1ccc(/N=N/c2ccccc2)cc1", "note": "[azobenzene]", "log": 0.0474}
{"smiles": "CC(=O)NC1CCSC1=O", "note": "(stereo unspecified) [citiolone]", "log": 0.0463}
{"smiles": "O=C(O)Cc1cnc[nH]1", "note": "[imidazol-4-ylacetic acid sodium salt]", "log": 0.0043}
{"smiles": "COc1cc([C@@H]2c3cc4c(cc3[C@H](OC(C)=O)[C@H]3COC(=O)[C@@H]23)OCO4)cc(OC)c1OC", "note": "[picropodophyllin acetate]", "log": 0.0109}
{"smiles": "CNC(=O)Oc1ccccc1OC(C)C", "note": "[propoxur]", "log": -0.0385}
{"smiles": "c1ccc2c(c1)sc1ccccc12", "note": "[dibenzothiophene]", "log": -0.124}
{"smiles": "O=P1(N(CCCl)CCCl)NCCCO1", "note": "(stereo unspecified) [cyclophosphamide]", "log": -0.147}
{"smiles": "CN1C(=O)CCS(=O)(=O)C1c1ccc(Cl)cc1", "note": "(stereo unspecified) [chlormezanone]", "log": 0.037}
{"smiles": "CC(C)C[C@H]1C(=O)N2CCC[C@H]2[C@]2(O)O[C@](NC(=O)[C@@H]3C=C4c5cccc6[nH]c(Br)c(c56)C[C@H]4N(C)C3)(C(C)C)C(=O)N12", "note": "[bromocriptine mesylate]", "log": -0.119}
{"smiles": "CN1[C@@H]2CC[C@H]1C[C@@H](OC(=O)C(CO)c1ccccc1)C2", "note": "(stereo partly specified) [atropine sulfate]", "log": -0.111}
